According to the supplement of paper PMC10849652:
The list shows a part of the results.

Chains of the proteins cited; added tags and fusions are not shown. Lines headed by an entry give the natural chain unless they say otherwise; changes in a name come on top.
UniProt Q9UK97: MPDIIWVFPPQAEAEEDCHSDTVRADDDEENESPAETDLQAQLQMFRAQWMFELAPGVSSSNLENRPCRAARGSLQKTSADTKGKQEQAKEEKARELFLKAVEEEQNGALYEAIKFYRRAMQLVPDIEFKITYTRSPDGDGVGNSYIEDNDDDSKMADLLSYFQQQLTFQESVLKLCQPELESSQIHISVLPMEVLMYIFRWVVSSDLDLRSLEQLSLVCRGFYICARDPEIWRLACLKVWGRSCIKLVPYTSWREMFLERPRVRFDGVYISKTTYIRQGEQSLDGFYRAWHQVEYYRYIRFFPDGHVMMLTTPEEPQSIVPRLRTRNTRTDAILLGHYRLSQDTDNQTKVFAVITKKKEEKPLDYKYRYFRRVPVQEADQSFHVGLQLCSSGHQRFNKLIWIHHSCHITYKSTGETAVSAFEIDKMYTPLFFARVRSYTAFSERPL
UniProt Q14318: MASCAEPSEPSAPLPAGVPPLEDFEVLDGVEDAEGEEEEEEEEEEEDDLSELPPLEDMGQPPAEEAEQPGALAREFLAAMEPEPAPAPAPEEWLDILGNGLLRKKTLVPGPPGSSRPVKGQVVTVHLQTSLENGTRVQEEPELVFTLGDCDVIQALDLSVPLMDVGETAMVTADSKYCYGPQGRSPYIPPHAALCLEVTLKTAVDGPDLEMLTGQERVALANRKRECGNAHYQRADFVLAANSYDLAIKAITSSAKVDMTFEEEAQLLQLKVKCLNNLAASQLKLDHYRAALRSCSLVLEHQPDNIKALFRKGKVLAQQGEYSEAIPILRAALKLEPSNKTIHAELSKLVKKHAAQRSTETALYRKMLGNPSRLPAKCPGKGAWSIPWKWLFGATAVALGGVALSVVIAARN
UniProt Q9NVK5: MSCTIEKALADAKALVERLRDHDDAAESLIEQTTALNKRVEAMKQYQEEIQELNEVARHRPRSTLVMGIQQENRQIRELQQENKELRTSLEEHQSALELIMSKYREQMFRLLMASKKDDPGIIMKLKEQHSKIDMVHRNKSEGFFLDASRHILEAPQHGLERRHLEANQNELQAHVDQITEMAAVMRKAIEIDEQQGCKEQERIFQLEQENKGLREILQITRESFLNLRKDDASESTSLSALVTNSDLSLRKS
UniProt Q8TF40: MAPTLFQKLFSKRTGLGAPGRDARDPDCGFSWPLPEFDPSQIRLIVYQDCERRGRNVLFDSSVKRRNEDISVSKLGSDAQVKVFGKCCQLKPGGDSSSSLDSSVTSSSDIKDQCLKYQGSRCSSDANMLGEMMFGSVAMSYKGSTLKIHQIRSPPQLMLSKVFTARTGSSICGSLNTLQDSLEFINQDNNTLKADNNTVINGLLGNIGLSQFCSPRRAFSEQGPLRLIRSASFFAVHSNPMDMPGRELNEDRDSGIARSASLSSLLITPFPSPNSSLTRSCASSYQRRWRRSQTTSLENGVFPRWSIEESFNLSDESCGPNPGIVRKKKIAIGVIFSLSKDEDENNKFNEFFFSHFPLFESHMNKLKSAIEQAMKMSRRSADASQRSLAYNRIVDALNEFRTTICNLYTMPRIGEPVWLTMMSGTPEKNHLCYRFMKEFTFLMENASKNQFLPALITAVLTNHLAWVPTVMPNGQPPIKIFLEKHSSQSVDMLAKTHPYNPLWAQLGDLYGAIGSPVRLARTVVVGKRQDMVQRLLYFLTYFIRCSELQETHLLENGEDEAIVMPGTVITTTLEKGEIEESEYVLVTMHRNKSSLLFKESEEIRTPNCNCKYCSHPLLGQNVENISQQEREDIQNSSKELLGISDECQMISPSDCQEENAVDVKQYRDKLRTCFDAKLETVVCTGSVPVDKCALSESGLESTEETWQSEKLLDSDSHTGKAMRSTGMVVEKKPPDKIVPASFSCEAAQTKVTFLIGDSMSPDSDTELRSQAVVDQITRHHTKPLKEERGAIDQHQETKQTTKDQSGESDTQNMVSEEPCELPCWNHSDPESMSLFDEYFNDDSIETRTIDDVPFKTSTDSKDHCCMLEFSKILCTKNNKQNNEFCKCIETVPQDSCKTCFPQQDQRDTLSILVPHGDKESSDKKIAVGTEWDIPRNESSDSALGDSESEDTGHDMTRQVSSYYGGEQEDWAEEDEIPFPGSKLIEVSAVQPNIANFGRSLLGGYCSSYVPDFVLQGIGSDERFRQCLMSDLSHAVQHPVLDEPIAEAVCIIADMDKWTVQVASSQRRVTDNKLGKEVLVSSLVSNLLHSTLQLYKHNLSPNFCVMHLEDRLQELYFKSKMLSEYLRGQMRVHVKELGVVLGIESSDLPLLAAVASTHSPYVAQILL
UniProt Q9Y3D6: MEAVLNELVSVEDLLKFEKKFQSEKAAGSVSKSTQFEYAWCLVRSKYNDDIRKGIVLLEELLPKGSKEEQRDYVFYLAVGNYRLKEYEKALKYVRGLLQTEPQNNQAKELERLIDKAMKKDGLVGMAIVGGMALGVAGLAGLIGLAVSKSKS
UniProt Q9UIM3: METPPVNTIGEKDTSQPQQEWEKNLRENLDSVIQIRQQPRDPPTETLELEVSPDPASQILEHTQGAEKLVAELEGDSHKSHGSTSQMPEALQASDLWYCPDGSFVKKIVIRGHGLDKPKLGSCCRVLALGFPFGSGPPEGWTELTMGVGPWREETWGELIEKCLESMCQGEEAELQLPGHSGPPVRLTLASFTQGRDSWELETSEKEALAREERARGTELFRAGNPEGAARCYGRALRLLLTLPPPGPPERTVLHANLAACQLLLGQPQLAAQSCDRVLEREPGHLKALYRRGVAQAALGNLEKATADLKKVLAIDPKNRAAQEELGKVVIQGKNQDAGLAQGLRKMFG
UniProt Q9HA64: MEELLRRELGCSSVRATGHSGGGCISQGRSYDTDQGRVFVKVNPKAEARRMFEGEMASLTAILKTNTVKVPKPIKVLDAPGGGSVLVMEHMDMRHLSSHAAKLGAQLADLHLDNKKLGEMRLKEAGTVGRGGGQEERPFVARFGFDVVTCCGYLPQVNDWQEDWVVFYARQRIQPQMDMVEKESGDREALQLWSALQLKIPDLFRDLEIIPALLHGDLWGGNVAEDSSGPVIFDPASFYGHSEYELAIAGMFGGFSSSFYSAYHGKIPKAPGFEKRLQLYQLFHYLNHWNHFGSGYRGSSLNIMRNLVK
UniProt Q96CP2: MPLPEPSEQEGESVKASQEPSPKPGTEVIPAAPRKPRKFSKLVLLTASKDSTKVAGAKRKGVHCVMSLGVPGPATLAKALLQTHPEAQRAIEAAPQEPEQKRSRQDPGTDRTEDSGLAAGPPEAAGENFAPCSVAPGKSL
UniProt Q86UX7, whole entry, looked up: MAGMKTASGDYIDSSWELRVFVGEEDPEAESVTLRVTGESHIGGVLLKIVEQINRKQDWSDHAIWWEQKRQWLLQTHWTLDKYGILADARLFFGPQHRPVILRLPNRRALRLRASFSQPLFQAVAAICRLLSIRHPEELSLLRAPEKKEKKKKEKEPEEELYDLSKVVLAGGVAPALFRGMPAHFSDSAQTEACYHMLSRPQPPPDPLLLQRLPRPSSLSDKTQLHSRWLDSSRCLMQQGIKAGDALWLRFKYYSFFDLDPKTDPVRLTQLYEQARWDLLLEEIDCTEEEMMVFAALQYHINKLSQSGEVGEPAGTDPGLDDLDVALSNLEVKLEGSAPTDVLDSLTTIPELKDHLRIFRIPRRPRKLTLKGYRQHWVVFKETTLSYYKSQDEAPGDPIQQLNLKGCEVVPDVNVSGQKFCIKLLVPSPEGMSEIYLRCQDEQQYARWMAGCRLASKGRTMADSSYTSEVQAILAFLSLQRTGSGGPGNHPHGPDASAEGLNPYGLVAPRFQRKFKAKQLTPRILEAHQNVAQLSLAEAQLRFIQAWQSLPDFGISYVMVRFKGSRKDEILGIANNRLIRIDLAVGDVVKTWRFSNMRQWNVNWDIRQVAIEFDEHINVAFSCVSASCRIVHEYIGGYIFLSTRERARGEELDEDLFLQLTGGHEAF
UniProt Q9NYY8: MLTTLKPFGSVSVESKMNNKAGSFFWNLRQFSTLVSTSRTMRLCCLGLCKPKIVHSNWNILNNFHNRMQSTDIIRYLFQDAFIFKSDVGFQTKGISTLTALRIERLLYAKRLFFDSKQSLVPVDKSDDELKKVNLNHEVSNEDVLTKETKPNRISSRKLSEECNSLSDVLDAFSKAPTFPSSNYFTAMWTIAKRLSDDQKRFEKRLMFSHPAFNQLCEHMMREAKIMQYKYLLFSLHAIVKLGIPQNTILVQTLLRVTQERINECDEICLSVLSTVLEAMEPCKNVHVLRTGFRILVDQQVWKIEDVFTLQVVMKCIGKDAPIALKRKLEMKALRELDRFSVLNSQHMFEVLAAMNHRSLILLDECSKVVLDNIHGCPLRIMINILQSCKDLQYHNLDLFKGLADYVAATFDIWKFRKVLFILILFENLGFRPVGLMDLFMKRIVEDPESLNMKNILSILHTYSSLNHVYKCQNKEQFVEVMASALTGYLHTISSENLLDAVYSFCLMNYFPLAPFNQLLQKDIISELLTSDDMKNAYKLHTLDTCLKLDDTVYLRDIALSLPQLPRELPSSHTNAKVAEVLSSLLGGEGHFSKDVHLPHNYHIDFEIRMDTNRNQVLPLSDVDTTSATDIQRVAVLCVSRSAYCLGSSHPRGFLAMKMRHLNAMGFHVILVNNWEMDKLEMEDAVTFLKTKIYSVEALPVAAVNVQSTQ
UniProt P12318: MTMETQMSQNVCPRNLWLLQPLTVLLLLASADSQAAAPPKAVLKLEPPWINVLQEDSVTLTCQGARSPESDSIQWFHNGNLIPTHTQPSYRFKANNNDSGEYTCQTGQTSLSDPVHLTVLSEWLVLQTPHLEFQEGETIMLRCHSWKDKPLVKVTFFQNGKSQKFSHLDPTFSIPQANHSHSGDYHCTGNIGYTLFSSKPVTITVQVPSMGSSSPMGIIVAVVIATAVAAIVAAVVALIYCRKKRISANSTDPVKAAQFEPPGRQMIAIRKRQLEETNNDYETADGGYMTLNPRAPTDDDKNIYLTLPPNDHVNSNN
UniProt Q7L8L6: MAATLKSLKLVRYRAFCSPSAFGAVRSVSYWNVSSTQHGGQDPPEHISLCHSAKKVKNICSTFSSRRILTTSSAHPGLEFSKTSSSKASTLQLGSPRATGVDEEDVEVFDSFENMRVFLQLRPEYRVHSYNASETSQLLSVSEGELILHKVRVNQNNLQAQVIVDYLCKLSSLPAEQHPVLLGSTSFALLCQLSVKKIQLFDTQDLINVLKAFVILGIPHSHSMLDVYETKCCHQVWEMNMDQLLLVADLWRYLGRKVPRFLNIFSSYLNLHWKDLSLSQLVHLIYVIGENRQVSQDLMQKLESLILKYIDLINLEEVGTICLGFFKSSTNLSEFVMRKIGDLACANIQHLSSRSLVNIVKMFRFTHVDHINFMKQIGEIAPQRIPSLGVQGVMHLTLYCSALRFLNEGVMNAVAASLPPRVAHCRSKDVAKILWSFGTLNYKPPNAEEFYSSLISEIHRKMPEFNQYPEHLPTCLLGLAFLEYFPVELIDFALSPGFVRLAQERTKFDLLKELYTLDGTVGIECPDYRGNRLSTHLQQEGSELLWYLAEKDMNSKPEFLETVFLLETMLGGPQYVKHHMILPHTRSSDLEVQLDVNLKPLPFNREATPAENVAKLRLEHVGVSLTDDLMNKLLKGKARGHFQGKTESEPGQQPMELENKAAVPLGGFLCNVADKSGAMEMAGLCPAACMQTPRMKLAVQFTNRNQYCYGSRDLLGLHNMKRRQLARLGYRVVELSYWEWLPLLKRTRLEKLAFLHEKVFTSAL
UniProt P14324: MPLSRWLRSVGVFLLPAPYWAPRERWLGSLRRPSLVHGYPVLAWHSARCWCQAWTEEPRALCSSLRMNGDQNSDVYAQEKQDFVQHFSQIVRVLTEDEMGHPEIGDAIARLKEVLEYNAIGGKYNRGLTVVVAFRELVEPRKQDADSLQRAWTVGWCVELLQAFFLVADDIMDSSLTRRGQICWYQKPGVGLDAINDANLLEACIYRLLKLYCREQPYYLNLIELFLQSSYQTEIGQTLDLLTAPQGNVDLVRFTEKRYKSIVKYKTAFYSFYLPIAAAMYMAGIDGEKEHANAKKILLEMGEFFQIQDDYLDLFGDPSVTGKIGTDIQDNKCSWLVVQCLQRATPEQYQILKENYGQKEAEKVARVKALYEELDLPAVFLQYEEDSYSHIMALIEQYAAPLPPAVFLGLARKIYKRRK
UniProt Q9UBU6: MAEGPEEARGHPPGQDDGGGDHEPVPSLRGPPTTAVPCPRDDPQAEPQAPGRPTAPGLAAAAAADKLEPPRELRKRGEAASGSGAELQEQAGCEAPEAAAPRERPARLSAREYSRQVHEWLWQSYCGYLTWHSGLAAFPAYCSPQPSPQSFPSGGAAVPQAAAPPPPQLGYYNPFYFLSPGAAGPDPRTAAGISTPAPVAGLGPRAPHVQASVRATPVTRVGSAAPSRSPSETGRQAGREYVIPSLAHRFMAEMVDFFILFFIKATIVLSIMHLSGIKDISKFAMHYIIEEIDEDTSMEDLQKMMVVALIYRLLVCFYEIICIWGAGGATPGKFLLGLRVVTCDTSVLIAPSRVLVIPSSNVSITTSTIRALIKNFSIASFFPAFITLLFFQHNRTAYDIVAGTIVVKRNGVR

Experiments:
Assay in all cases: log2 fold change, soluble protein after heating vs DMSO (PISA); higher = thermal stabilisation; K562 lysate, 10 uM; active = over 0.2 and 3.5 SD of the protein, either way, in both replicates (recomputed)
ibrutinib = compound: C=CC(=O)N1CCC[C@@H](n2nc(-c3ccc(Oc4ccccc4)cc3)c3c(N)ncnc32)C1 [ibrutinib]
Summary of the method: (§1)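 Quantification was by TMTpro 16plex LC-MS/MS with equalised channel sums, applied to the supernatant after 21,000xg for 90 min. Samples were crude K562 extract at 1 mg/mL protein in PBS pH 7.4 with 1 mM MgCl2, treated with 10 μM compound for 30 min, heated for 3 min across 48°C-58°C, pooled and brought to 0.5% NP-40 at 4°C. Values are log-two fold changes in thermal stability relative to solvent controls, from duplicates.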

[1] = compound: CC(=O)c1cnc2ccc(-c3cc(Cl)c(O)c(Cl)c3)nc2c1N[C@H]1CC[C@H](CN(C)C)CC1
Summary of the method: as §1

ralimetinib = compound: CC(C)(C)Cn1c(N)nc2ccc(-c3[nH]c(C(C)(C)C)nc3-c3ccc(F)cc3)nc21 [ralimetinib]
Summary of the method: as §1

[2] = compound: CC(C)(O)CC(=O)NCCn1ccc2ncnc(Nc3ccc(Oc4cccc(C(F)(F)F)c4)c(Cl)c3)c21
Summary of the method: as §1

[3] = compound: CC(C)C1=C2N=C(C=C(N2N=C1)NCC3=CC=CC=C3)NCCCCCCN
Summary of the method: as §1

[4] = compound: CC1=C(C(CC(=O)N1)C2=CC=C(C=C2)C(F)(F)F)C(=O)NC3=C(C=C4C(=C3)C=NN4)F
Summary of the method: as §1

[5] = compound: CC1=C(C2=C(C=C1)C(=O)C3=CC=CC=C3N2CCCN)C
Summary of the method: as §1

[6] = compound: CC1=C(C=C(C=C1)NC(=O)C2=CC(=CC=C2)C(C)(C)C#N)NC3=CC4=C(C=C3)N=CN(C4=O)C
Summary of the method: as §1

[7] = compound: CC1=C(C=C(C=C1)NC(=O)C2=CC(=CC=C2)N(C)C)NC(=O)C3=CC=C(C=C3)O
Summary of the method: as §1

[8] = compound: CC1=CC=C(C=C1)SC2=C3C=C(SC3=CN=C2)C(=O)N
Summary of the method: as §1

Measured: log2 fold change

FLAD1 (UniProt Q8NFF5)
inactive: ibrutinib -0.011 | [1] 0.002 | ralimetinib 0.016 | [2] -0.014 | [3] -0.072 | [4] -0.004 | [5] -0.026 | [6] 0.002 | [7] 0.011 | [8] 0.015

FBXO9 (UniProt Q9UK97)
inactive: ibrutinib 0.006 | [1] -0.014 | ralimetinib -0.046 | [2] 0.077 | [3] -0.09 | [4] 0.009 | [5] 0.019 | [6] 0.017 | [7] 0.047 | [8] 0.026

FKBP8 isoform 2 (UniProt Q14318)
inactive: ibrutinib 0.022 | [1] -0.016 | ralimetinib 0.018 | [2] -0.017 | [3] 0.027 | [4] -0.041 | [5] 0.024 | [6] 0.034 | [7] 0.007 | [8] -0.053

FGFR1OP2 (UniProt Q9NVK5)
inactive: ibrutinib -0.006 | [1] -0.033 | ralimetinib -0.017 | [2] 0 | [3] -0.073 | [4] 0.006 | [5] -0.03 | [6] 0.002 | [7] -0.045 | [8] -0.037

FNIP1 isoform 3 (UniProt Q8TF40)
inactive: ibrutinib 0.071 | [1] -0.01 | ralimetinib 0.071 | [2] -0.024 | [3] -0.038 | [4] 0.046 | [5] 0.038 | [6] -0.022 | [7] 0.033 | [8] -0.052

FIS1 (UniProt Q9Y3D6)
inactive: ibrutinib 0.063 | [1] 0.01 | ralimetinib 0.004 | [2] -0.006 | [3] -0.019 | [4] 0.026 | [5] -0.054 | [6] 0.06 | [7] -0.032 | [8] -0.019

Quoted at random: two entries already listed.
FBXO9 (UniProt Q9UK97)
inactive: ibrutinib 0.006 | [1] -0.014 | ralimetinib -0.046 | [2] 0.077 | [3] -0.09 | [4] 0.009 | [5] 0.019 | [6] 0.017 | [7] 0.047 | [8] 0.026

FKBP8 isoform 2 (UniProt Q14318)
inactive: ibrutinib 0.022 | [1] -0.016 | ralimetinib 0.018 | [2] -0.017 | [3] 0.027 | [4] -0.041 | [5] 0.024 | [6] 0.034 | [7] 0.007 | [8] -0.053

(cont.)

FKBPL (UniProt Q9UIM3)
inactive: ibrutinib 0.04 | [1] 0.011 | ralimetinib -0.005 | [2] 0.032 | [3] 0.013 | [4] 0.027 | [5] -0.083 | [6] -0.003 | [7] -0.033 | [8] -0.025

FAU (UniProt E9PR30)
inactive: ibrutinib -0.018 | [1] 0.012 | ralimetinib -0.01 | [2] -0.018 | [3] -0.122 | [4] -0.034 | [5] -0.015 | [6] 0.029 | [7] -0.003 | [8] 0.027

FN3KRP (UniProt Q9HA64)
inactive: ibrutinib 0.012 | [1] -0.009 | ralimetinib -0.005 | [2] 0.006 | [3] -0.015 | [4] 0.018 | [5] -0.006 | [6] 0.022 | [7] -0.013 | [8] 0.1

FAM91A1 (UniProt Q658Y4)
inactive: ibrutinib 0.016 | [1] 0.003 | ralimetinib 0.022 | [2] -0.018 | [3] -0.011 | [4] -0.014 | [5] 0.009 | [6] 0.003 | [7] -0.04 | [8] 0

FLYWCH2 (UniProt Q96CP2)
inactive: ibrutinib 0.019 | [1] 0.02 | ralimetinib -0.004 | [2] 0.009 | [3] -0.022 | [4] 0.009 | [5] 0.011 | [6] 0.024 | [7] -0.05 | [8] -0.041

FERMT3 (UniProt Q86UX7)
inactive: ibrutinib -0.008 | [1] -0.011 | ralimetinib 0 | [2] -0.014 | [3] -0.001 | [4] -0.018 | [5] 0 | [6] 0.026 | [7] 0.007 | [8] 0.004

FASTKD2 (UniProt Q9NYY8)
inactive: ibrutinib -0.008 | [1] -0.006 | ralimetinib -0.004 | [2] -0.039 | [3] -0.013 | [4] 0.003 | [5] -0.007 | [6] 0.034 | [7] -0.001 | [8] 0.024

FERMT2 isoform 3 (UniProt Q96AC1)
inactive: ibrutinib 0.027 | [1] -0.004 | ralimetinib 0.006 | [2] -0.007 | [3] 0.051 | [4] -0.059 | [5] -0.037 | [6] 0.019 | [7] 0.007 | [8] -0.055

FCGR2A (UniProt P12318)
inactive: ibrutinib 0.054 | [1] 0.019 | ralimetinib 0.002 | [2] -0.039 | [3] -0.02 | [4] -0.043 | [5] 0.042 | [6] 0.018 | [7] -0.001 | [8] -0.029

FKBP7 (UniProt Q9Y680)
inactive: ibrutinib 0.088 | [1] -0.016 | ralimetinib -0.003 | [2] -0.11 | [3] -0.005 | [4] 0.053 | [5] 0.068 | [6] 0.024 | [7] 0.018 | [8] 0.001

FASTKD5 (UniProt Q7L8L6)
inactive: ibrutinib -0.134 | [1] 0.056 | ralimetinib 0.073 | [2] 0.007 | [3] -0.027 | [4] 0.032 | [5] 0.006 | [6] 0.021 | [7] 0.008 | [8] -0.053

FDPS (UniProt P14324)
inactive: ibrutinib 0.005 | [1] 0.016 | ralimetinib -0.008 | [2] -0.01 | [3] 0.004 | [4] -0.046 | [5] 0.023 | [6] 0.04 | [7] 0.045 | [8] 0.032

FAM8A1 (UniProt Q9UBU6)
inactive: ibrutinib 0.065 | [1] -0.022 | ralimetinib -0.001 | [2] -0.032 | [3] 0.051 | [4] 0.088 | [5] -0.066 | [6] -0.083 | [7] -0.056 | [8] -0.061
